Experimental data reported in PMC12040169 (PLOS Biology, 2025).
Some of the results follow.

Tested on: T1, CTL2-GFP (C. trachomatis L2/434/Bu, GFP-expressing)
T1 construct: L2/434/Bu, GFP-expressing
Parameters: species or system HeLa; Intracellular C. trachomatis growth in HeLa cells, bulk GFP fluorescence relative to DMSO
Conditions: bulk GFP, single well; 28.5 h, 10 µM; inhibitor

SMILES | % of control remaining [%]
Cn1ccnc1C(NC(=O)Cc1ccc(O)cc1)c1ccccc1 (centres unmarked) [CBK283723] | 134.305
CCc1cc(CNS(=O)(=O)c2cc(C)ccc2F)on1 [CBK283064] | 80.3544
C/C(=N\NC(=O)Cc1ccc([N+](=O)[O-])cc1[N+](=O)[O-])c1ccccc1O [CBK261175] | 103.759
COc1cccc(C2(NC(=O)c3c(C)noc3C)CCCC2)c1 [CBK283659] | 105.136
O=C(O)CSc1nc2ccc(NC(=O)c3ccccc3Cl)cc2s1 [CBK299791] | 125.046
O=C(O)Cc1ccc(NC(=O)c2cccnc2C(=O)O)cc1 [CBK267397] | 102.503
CCNC(=S)N[C@H]1CC[C@@]2(Cc3ccc(OC)cc3)CCN(C)[C@H]2C1 [CBK004257] | 105.583
O=C(CCn1c(C(F)(F)F)cc2cccnc21)N1CCOCC1 [CBK284869] | 131.976
CCC(C)(C)c1ccc(S(=O)(=O)N2CCN(Cc3ccc(C(C)=O)cc3)CC2)cc1 [CBK062826] | 72.4401
O=C1CCCN1CCOc1nccnc1-c1ccsc1 [CBK106759] | 123.882
CCS(=O)(=O)N1CCCCCC1c1nn(C)cc1Cl (centres unmarked) [CBK284672] | 119.589
Cc1cc(NS(=O)(=O)c2ccc(Oc3ccc(-c4ccccc4)cc3)nc2)no1 [CBK295343] | 113.188
CC(=O)Nc1ccc(-c2ccc(C(=O)NCc3ccc(S(C)(=O)=O)cc3)cn2)cc1 [CBK158860] | 102.004
Cc1cc(C)nc(N(C#N)CC(=O)N2c3ccccc3CCc3ccccc32)n1 [CBK266509] | 108.126
COCc1nc(C)c(C(=O)NC2CCCN(c3ccn(C)n3)C2=O)s1 (centres unmarked) [CBK306497] | 112.917
O=C(CCCN1C(=O)c2cccc3cccc(c23)C1=O)Nc1cccnc1 [CBK262560] | 100
COc1ccccc1N1CCN(C(=O)Nc2ccc(Cl)cc2)CC1 [CBK155597] | 121.362
COc1ccc(-c2nn(-c3ccccc3)cc2/C=C2/SC(=S)N(Cc3ccccc3)C2=O)c(C)c1 [CBK265107] | 122.497
CC(C)C(NC(=O)N1c2ccccc2NC(=O)C1C(C)C)C(=O)O (centres unmarked) [CBK286670] | 92.405
O=C(NCc1cccnc1)c1ccccc1NS(=O)(=O)c1ccc(F)cc1 [CBK269754] | 149.26
CCOc1cc(/C=N/Nc2nnc(C)n2N)ccc1O [CBK027460] | 7.066
O=C1NCCNC(=O)C2(CCCCOc3ccccc31)CCNCC2 [CBK292074] | 95.2502
O=S1(=O)CCC(Sc2nncc3ccccc23)C1 (centres unmarked) [CBK021586] | 121.625
CCC(c1ccc2c(c1)CCO2)N1CCN(Cc2nc(C)no2)CC1 (centres unmarked) [CBK304237] | 92.8974
CC(Cc1ccccn1)NC(=O)Cn1ccnc1 (centres unmarked) [CBK282069] | 109.047
O=c1[nH]c2ncc(-c3ccncc3)nc2n1CC1CC1 [CBK064539] | 214.442
O=C(c1ccncc1)N1CCc2cc(-c3csc(C4CC4)n3)ccc21 [CBK288618] | 136.629

SMILES | % of control remaining [%]
O=C(c1ccco1)N1CCN(c2ccc(-c3cccc4cccnc34)cn2)CC1 [CBK037640] | 145.757
NC(=O)c1cc(C2CCCN(CC(=O)NCc3cccs3)C2)n[nH]1 (centres unmarked) [CBK305361] | 105.271
CCN1CCN(C(=O)c2cccn2C)CC1 [CBK200248] | 113.211
COc1ccc(O)c(C(=O)c2cnn(C(=O)c3ccc(C)cc3)c2)c1 [CBK297546] | 138.732
Cc1ccc(S(=O)(=O)NC2CCC(C(=O)O)CC2)cc1 (centres unmarked) [CBK286929] | 127.466
CC1=C[C@@H](CNS(=O)(=O)c2ccccc2)[C@H](C(C)C)C[C@H]1CC(=O)N1CCCC1 [CBK289054] | 64.4471
Cc1cc(C)n(CCC(=O)N2CCCCC2C(=O)O)n1 (centres unmarked) [CBK304678] | 112.066
Cc1cc(C)n(CCCn2cncc2-c2ccc3c(c2)CC(C)N3C)n1 (centres unmarked) [CBK281773] | 164.746
CC(C)(C)SCCNC(=S)NCCO [CBK020686] | 107.415
CNC(=O)C1(Cc2ccccc2-c2ccccc2)CCN(C(=O)CCC2CCCC2)CC1 [CBK285696] | 136.337
CCN(CC)CCNC(=O)c1cc(=O)c2ccccc2o1 [CBK010691] | 115.346
CN(C)CCN(C)c1cncc(-c2ccc3ccccc3c2)n1 [CBK037146] | 163.324
O=C(CCCc1ccccc1)Nc1cccnc1N1CCNCC1 [CBK028256T] | 89.6116
COCCNC(=O)C1CCN(c2nc3c(-c4cccc(C)c4)csc3c(=O)[nH]2)CC1 [CBK215629] | 122.275
COc1ccc(CNC(=S)Nc2cccc(C(F)(F)F)c2)cc1OC [CBK266977] | 151.935
O=C(CSc1nnc2scc(-c3ccccc3)n12)Nc1nsc(-c2ccc(Cl)cc2)n1 [CBK266576] | 138.402
COCCNc1nc(-c2cccc3cccnc23)cn2ccnc12 [CBK037314] | 182.154
O=C(CCN1CCCC1Cn1cncn1)NCCc1ccccc1 (centres unmarked) [CBK305677] | 102.48
Cn1c(=O)c2c(nc(Oc3ccccc3Cl)n2Cc2cccc(C(F)(F)F)c2)n(C)c1=O [CBK265940] | 126.31
COc1ccc(C(=O)N[C@@H]2CC[C@@]3(c4ccc(OC)c(OC)c4)CCN(C)[C@H]3C2)c(OC)c1 [CBK074247T] | 116.496
Fc1ccc(-c2cncc(NCCc3ccncc3)n2)c(F)c1 [CBK065810] | 120.813
Oc1cccc(/C=N/c2nnn[nH]2)c1 [CBK260977] | 116.338
CC(NC(=O)c1ccccc1)c1nnc(SCC(=O)N2CCOCC2)n1C (centres unmarked) [CBK269647] | 120.734
CN1CCN(C2=NC(=O)CC(C(=O)Nc3ccccc3)N2)CC1 (centres unmarked) [CBK267884] | 121.626
Cn1cccc1CCC(=O)NC1CCN(Cc2ccccc2Cl)CC1 [CBK306814] | 158.644
CN(C)CCNC(=S)Nc1ccc([N+](=O)[O-])cc1 [CBK266964] | 106.269
Cc1ccc(C)c(NC(=O)C2CN(S(=O)(=O)c3ccccc3)CCN2S(=O)(=O)c2ccccc2)c1 (centres unmarked) [CBK267349] | 82.1177

Six of the compounds above, in markdown.

| SMILES | % of control remaining [%] |
| --- | --- |
| CNC(=O)C1(Cc2ccccc2-c2ccccc2)CCN(C(=O)CCC2CCCC2)CC1 [CBK285696] | 136.337 |
| CCN(CC)CCNC(=O)c1cc(=O)c2ccccc2o1 [CBK010691] | 115.346 |
| CN(C)CCN(C)c1cncc(-c2ccc3ccccc3c2)n1 [CBK037146] | 163.324 |
| O=C(CCCc1ccccc1)Nc1cccnc1N1CCNCC1 [CBK028256T] | 89.6116 |
| COCCNC(=O)C1CCN(c2nc3c(-c4cccc(C)c4)csc3c(=O)[nH]2)CC1 [CBK215629] | 122.275 |
| COc1ccc(CNC(=S)Nc2cccc(C(F)(F)F)c2)cc1OC [CBK266977] | 151.935 |

Remaining list, next part:

SMILES | % of control remaining [%]
CCN1CCCC1CNC(=O)c1cccc(Cl)c1 (centres unmarked) [CBK262621] | 100
CCNC(=O)N1CC2(CCN(Cc3ccc(Cl)c(Cl)c3)CC2)c2ccccc21 [CBK126690] | 121.357
COc1cc(NC(=O)COc2ccc3ccccc3c2)c(C(=O)O)cc1OC [CBK264181] | 113.702
CC(=O)NC1(c2ccccc2F)CCN(CC(=O)N(C)C)CC1 [CBK283618] | 131.114
OC1(c2cccnc2)CCN(CC2(c3ccc(Cl)cc3)CC2)CC1 [CBK282780] | 102.98
O=C(c1ccc2ncccc2c1)N1CCC(c2ccncc2)CC1 [CBK283684] | 140.539
c1ccc(Nc2ccccc2Nc2ccccn2)nc1 [CBK261806] | 100
CCc1nc2ccc(C(=O)N3CCC(O)(Cc4ccccc4)CC3)cn2c1N(CC)C(=O)CCC1CCCC1 [CBK146854] | 100
CN1CCN(C(=O)c2ccc(-c3cncc(-c4ccc(O)cc4)n3)c(F)c2)CC1 [CBK126752] | 149.171
CCC(O)CNS(=O)(=O)c1ccc(OC(F)(F)F)cc1 (centres unmarked) [CBK043557] | 122.905
COC(=O)c1cc(C#N)c(=O)n(CC(O)COc2cccc(Br)c2)c1 (centres unmarked) [CBK304984] | 58.4262
O=C(O)CN(c1ccccc1[N+](=O)[O-])S(=O)(=O)c1ccccc1 [CBK263158] | 100
NS(=O)(=O)c1ccc(NC(=S)NC(=O)c2ccc(Cl)cc2Cl)cc1 [CBK266265] | 130.41
Cn1nc(NC(=O)COCC(=O)O)c2ccccc21 [CBK057114] | 119.592
CN(C(=O)CCC(=O)O)c1ccccc1C(=O)O [CBK261429] | 120.243
O=C(Cc1ccccc1F)N1CCC(c2n[nH]c3ncccc23)CC1 [CBK284908] | 105.945
O=C1NC2(CCN(C(=O)c3ccco3)CC2)Nc2ccccc21 [CBK284762] | 77.8484
CC(C)Nc1cc(SC2CCCCC2)ncn1 [CBK107163] | 106.812
CCCC12CN3CC(CCC)(CN(C1)C3c1ccc([N+](=O)[O-])cc1)C2=O (centres unmarked) [CBK264481] | 139.113
C=C(C)Cn1c(-c2ccccc2C)nnc1S(=O)(=O)CC(C)C [CBK200074] | 121.231
C=CCn1c(SCC(=O)Nc2nc3ccc(OCC)cc3s2)nc2cc(C(=O)O)ccc2c1=O [CBK297520] | 82.1661
Cc1nn(C)c(N2CCNCC2)c1NC(=O)C1=CC(=O)CC(C)(C)O1 [CBK050362T] | 100
CN(Cc1ccc(-c2ccc(S(C)(=O)=O)cc2)nc1)C1CCN(C(=O)Cc2cccc(C(F)(F)F)c2)CC1 [CBK164104T] | 69.962
COc1cc(/C=N/NC(=O)CSc2n[nH]c(=O)[nH]c2=O)cc(OC)c1O [CBK263527] | 127.59
Nc1ncc(Br)nc1N1CCC[C@@H]1CO [CBK085450] | 135.619
O=[N+]([O-])c1c(N(CCO)CCO)cc(Cl)c2nonc12 [CBK261446] | 117.202
